Experiment: Laser photolysis at 355 nm, released NADP quantified by the G6PD assay
Format: physicochemical

With `COc1cc(C(C)OP(=O)(O)O[C@@H]2[C@H](O)[C@@H](COP(=O)(O)OP(=O)([O-])OC[C@H]3O[C@@H]([n+]4cccc(C(N)=O)c4)[C@H](O)[C@@H]3O)O[C@H]2n2cnc3c(N)ncnc32)c([N+](=O)[O-])cc1OC` (stereo partly shown) [compound 1, P^2' -[1-(4,5-Dimethoxy-2-nitrophenyl)ethyl]nicotinamide adenine dinucleotide phosphate] the “photorelease of the caged NADP in the irradiated elliptical cylinder (converted to NADP)” value (55 mJ, 355 nm, irradiated volume 88 μL of the 800-μL sample) was 72%, the “photorelease of compound in the cuvette” value (55 mJ, 355 nm, whole 800-μL sample) was 7.9% and the “fold lower concentration of 1 than 3 required to produce the same concentration of NADP” value (excitation at 355 nm) was “approximately 400 fold”. The “final concentration of NADP produced” value (full laser energy 55 mJ, total of 800 ns excitation at 355 nm, initial concentration 51 μM) was 4.1 µM.

— patent publication US6020480A, “Caged NADP and NAD” (The Regents of the University of California, priority 1997, dated 2000)
